Data on 1 molecule can be found in ChEMBL document CHEMBL1287749, “Acetazolamide-based fungal chitinase inhibitors” (Bioorg Med Chem, 2010).

The experiment concerns the target T1, Endochitinase (Saccharomyces cerevisiae S288c, UniProt P29029).
T1 sequence (P29029 whole entry): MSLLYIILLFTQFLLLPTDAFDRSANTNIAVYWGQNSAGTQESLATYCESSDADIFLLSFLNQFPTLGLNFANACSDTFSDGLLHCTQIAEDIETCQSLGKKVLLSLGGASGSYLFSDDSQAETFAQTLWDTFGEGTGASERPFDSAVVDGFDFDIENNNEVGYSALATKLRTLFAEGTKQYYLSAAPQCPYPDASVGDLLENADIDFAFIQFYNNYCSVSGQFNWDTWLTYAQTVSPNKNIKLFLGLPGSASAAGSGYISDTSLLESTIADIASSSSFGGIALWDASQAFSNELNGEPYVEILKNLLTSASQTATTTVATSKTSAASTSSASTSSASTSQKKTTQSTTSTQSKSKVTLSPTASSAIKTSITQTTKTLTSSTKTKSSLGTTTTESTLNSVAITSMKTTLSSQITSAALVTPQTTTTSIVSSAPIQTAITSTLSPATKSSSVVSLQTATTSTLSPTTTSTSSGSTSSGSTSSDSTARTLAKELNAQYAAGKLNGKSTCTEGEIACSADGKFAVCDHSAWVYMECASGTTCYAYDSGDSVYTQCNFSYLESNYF
Description: Inhibition of Saccharomyces cerevisiae CTS1.

Structures are written as SMILES.

As usually defined, the Ki is the equilibrium dissociation constant of an inhibitor or competing ligand from its target. The molecule `CC(=O)Nc1nnc(S(N)(=O)=O)s1` [ACETAZOLAMIDE] registered a Ki of 21 µM.
